In patent publication US20100166741A1 one finds binding data, which are given here for two molecules.

Assay [1] addresses T1, mouse BR3 (mouse) (UniProt Q9D8D0).
T1 sequence (looked up): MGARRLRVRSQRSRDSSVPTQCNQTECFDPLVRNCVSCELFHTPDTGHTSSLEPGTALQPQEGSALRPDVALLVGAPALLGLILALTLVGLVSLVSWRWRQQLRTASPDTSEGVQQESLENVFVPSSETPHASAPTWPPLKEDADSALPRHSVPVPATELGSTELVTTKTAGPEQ
As to the kind of experiment: BHK binding assay.

For assay [2], the target named is T1, mouse BR3 (mouse). As to the kind of experiment: mapping study on mouse BR3.

No constants are given. Whether binding was seen depends on the method and setting. Some results given as binding are weak or reduced against the parent protein; the word gives no strength.

B1: V3-1h (antibody, human IgG1, V domains shown)
VH: EVQLVESGGGLVQPGGSLRLSCAASGFTISSNSIHWVRQAPGKGLEWVAWITPSDGNTDYADSVKGRFTISADTSKNTAYLQMNSLRAEDTAVYYCARRVCYNRLGVCAGGMDYWGQGTLVTVSS
VL: DIQMTQSPSSLSASVGDRVTITCRASQDVSTAVAWYQQKPGKAPKLLIYSASFLYSGVPSRFSGSGSGTDFTLTISSLQPEDFATYYCQQSRITPPTFGQGTKVEIKR
Turning to B1, the binding result in the assay with mouse BR3 (mouse) [1] is recorded as “binds”.

B2: V3-1m (antibody, mouse IgG2a, V domains shown)
VH: EVQLVESGGGLVQPGGSLRLSCAASGFTISSNSIHWVRQAPGKGLEWVAWITPSDGNTDYADSVKGRFTISADTSKNTAYLQMNSLRAEDTAVYYCARRVCYNRLGVCAGGMDYWGQGTLVTVSS
VL: DIQMTQSPSSLSASVGDRVTITCRASQDVSTAVAWYQQKPGKAPKLLIYSASFLYSGVPSRFSGSGSGTDFTLTISSLQPEDFATYYCQQSRITPPTFGQGTKVEIKR
Turning to B2, the binding entry with mouse BR3 (mouse) [1] and with mouse BR3 (mouse) [2] was “binds” throughout.
